Experimental findings from US7415358B2, “Molecular toxicology modeling” (Ocimum Biosolutions, Inc., priority 2001, dated 2008) are described below.

For the series, the system named is kidney. In words: Linear discriminant analysis score of each gene (tox vs non-tox samples).

“9-[(2-hydroxyethyl) methyl] guanine [ACYCLOVIR]” displayed an LDAScore of 99.61.
